Measurements: publication PMC3991325
No constants are given. Whether binding was seen depends on the method and setting. In cells and extracts the contact can be indirect. These calls come from enrichment with a bait or labelling near it, and not all partners need be listed.

Amino acid sequences for entries named in this document (tags omitted).
UniProt Q05022: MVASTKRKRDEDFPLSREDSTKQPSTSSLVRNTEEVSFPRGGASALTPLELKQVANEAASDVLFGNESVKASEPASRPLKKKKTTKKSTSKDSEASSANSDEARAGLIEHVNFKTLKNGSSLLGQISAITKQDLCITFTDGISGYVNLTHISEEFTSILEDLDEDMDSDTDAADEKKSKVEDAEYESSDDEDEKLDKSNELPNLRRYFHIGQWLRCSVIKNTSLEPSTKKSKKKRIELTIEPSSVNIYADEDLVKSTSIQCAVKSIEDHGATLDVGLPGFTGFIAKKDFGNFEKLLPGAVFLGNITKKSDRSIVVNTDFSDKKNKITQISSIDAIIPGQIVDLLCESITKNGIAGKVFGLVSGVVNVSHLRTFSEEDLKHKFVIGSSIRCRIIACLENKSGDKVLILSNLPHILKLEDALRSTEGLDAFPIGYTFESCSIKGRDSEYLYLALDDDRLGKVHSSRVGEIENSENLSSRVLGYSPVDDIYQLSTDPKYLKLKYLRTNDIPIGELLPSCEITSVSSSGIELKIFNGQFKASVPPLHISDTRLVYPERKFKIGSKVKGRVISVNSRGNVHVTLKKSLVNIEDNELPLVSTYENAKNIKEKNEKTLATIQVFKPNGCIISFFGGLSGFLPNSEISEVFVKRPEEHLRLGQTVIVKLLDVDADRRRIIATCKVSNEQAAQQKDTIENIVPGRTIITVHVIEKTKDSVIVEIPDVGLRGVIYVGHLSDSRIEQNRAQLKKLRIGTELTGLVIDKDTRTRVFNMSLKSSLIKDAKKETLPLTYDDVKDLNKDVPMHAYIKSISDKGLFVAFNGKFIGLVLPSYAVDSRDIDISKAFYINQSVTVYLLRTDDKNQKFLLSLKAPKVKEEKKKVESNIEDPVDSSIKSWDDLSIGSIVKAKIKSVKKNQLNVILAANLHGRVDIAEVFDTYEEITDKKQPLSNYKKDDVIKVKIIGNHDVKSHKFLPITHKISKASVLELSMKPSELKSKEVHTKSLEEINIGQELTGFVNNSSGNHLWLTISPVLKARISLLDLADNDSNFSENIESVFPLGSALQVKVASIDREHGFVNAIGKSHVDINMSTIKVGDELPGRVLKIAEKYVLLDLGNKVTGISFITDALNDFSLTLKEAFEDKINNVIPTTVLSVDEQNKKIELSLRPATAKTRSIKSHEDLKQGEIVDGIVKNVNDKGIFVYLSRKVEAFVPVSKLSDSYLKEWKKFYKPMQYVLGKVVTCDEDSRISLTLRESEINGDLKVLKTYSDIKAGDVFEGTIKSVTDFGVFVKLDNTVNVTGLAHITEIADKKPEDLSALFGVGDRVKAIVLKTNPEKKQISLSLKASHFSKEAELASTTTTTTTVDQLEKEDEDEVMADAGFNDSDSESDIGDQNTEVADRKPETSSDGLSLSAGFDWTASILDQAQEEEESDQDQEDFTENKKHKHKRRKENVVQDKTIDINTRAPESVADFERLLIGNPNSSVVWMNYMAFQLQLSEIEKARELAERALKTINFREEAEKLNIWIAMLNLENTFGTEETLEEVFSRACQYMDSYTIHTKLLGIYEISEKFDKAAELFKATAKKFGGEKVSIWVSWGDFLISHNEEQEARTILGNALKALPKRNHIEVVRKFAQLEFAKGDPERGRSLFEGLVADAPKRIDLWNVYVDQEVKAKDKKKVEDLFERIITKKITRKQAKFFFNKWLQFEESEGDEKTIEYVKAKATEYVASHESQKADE
UniProt P53131: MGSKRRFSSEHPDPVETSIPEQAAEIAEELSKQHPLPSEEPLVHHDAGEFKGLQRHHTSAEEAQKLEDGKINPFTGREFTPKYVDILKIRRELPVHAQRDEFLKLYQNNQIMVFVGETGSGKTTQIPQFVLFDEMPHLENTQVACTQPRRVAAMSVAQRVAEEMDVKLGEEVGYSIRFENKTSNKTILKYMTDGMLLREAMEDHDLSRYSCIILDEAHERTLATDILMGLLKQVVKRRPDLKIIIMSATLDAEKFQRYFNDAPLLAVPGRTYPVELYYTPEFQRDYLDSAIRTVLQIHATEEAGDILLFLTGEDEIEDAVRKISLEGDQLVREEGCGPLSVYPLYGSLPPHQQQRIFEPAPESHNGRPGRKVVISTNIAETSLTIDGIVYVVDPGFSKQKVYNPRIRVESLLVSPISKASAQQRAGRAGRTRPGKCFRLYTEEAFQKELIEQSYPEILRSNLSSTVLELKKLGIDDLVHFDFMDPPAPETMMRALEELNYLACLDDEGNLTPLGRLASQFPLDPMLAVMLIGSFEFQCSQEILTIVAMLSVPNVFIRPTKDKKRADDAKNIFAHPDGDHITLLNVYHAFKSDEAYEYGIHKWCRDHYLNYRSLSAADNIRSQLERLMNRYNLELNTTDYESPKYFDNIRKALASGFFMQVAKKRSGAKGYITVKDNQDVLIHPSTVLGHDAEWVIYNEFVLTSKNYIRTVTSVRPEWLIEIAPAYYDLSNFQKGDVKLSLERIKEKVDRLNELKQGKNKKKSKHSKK
UniProt Q12499: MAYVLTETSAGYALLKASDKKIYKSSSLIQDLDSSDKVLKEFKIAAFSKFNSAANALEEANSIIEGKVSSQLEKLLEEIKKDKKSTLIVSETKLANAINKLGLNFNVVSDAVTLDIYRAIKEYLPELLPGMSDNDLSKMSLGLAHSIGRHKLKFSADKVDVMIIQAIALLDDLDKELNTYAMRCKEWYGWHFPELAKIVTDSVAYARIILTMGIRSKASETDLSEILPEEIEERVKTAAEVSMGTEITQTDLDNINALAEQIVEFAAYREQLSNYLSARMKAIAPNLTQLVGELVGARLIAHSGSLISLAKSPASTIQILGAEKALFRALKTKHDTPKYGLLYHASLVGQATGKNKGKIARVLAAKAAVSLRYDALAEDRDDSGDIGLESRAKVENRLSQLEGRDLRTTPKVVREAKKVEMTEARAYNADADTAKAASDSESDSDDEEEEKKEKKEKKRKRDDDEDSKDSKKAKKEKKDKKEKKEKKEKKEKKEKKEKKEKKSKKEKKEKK
UniProt P32324: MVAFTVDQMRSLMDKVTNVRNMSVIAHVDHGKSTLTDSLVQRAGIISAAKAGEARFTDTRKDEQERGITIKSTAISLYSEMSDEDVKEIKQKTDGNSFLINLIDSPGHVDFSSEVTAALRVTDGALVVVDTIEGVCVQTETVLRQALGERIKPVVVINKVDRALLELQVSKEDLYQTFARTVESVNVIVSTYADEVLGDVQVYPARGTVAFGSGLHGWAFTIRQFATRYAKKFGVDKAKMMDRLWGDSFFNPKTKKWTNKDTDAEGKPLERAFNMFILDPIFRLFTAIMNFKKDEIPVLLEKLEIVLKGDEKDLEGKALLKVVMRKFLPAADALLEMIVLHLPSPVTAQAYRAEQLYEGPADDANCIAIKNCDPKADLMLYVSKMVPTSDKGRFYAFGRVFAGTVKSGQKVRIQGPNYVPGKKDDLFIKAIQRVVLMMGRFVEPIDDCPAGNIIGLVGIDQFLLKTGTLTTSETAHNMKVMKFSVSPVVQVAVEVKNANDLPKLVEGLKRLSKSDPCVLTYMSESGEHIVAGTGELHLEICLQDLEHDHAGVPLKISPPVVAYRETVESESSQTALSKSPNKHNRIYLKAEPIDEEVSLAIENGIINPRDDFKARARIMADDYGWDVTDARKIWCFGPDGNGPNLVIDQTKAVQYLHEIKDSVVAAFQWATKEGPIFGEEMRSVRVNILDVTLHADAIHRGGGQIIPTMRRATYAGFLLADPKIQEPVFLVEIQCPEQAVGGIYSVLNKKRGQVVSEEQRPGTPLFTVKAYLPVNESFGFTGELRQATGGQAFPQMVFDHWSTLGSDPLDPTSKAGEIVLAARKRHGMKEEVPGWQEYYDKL
UniProt P10591: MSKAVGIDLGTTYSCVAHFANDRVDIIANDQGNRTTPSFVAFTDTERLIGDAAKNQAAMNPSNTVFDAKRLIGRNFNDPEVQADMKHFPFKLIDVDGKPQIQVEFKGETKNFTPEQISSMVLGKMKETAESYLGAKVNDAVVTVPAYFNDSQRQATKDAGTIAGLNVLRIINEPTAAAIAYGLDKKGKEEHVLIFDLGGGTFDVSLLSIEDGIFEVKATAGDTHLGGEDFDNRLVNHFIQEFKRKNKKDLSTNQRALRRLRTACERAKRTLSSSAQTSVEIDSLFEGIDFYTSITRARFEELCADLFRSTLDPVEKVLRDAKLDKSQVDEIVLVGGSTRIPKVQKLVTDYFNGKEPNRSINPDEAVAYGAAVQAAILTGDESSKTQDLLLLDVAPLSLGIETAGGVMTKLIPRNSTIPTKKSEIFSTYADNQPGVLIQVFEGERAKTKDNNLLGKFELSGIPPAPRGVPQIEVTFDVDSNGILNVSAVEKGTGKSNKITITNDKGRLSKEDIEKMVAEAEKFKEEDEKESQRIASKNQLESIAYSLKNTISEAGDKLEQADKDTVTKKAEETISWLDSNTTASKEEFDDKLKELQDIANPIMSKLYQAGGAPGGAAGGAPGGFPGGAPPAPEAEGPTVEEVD
UniProt Q12460: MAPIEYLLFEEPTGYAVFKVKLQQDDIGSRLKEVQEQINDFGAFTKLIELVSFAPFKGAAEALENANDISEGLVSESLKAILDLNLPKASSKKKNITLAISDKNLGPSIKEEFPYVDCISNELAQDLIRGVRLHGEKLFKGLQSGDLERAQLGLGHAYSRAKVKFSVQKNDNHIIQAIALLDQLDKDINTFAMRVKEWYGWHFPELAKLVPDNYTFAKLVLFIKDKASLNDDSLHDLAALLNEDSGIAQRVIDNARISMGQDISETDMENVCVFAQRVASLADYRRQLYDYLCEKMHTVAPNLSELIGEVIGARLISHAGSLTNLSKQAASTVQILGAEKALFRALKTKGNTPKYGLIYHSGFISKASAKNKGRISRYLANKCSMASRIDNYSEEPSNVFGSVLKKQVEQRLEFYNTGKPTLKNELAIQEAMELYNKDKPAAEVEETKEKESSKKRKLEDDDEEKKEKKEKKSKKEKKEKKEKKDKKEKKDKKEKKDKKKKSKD
UniProt P14120: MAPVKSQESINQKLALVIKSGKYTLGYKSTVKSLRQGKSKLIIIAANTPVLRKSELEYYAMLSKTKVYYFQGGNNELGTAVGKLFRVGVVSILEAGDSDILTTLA
UniProt P0CX41: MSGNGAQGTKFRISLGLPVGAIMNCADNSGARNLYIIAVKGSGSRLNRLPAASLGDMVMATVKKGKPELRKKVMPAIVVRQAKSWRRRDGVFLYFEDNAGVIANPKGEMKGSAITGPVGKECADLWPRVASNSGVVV
UniProt P0C0W1: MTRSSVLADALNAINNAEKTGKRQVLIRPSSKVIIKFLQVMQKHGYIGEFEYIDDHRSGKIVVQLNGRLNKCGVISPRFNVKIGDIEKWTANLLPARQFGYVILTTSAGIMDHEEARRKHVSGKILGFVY
UniProt P46654: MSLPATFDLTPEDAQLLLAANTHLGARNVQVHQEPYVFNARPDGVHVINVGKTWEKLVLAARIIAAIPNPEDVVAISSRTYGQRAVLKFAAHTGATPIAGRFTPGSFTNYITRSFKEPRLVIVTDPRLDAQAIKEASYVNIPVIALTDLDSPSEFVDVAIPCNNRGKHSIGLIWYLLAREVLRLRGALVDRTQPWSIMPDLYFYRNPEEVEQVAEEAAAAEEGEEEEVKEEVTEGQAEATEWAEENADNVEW
UniProt Q3E757: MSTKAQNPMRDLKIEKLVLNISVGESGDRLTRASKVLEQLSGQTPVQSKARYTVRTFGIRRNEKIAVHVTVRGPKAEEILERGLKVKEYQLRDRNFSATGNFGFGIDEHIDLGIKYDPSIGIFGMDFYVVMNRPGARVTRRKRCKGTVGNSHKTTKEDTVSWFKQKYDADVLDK
UniProt P15646: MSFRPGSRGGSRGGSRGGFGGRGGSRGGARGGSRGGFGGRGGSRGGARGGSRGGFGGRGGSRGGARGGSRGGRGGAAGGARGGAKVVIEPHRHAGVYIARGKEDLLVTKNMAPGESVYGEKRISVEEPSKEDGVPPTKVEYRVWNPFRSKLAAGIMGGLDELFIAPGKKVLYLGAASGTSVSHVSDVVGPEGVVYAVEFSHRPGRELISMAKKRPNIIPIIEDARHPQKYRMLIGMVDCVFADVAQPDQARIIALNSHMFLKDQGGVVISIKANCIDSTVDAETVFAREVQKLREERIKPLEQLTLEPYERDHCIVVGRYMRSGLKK
UniProt P0CX44: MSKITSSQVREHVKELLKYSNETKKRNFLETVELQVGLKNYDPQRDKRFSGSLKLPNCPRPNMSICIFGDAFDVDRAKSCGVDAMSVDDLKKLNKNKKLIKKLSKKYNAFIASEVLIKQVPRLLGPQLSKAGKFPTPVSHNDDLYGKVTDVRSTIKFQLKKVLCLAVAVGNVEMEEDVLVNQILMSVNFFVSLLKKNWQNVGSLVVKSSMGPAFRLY

Target: Rrp5-HTP (budding yeast) (UniProt Q05022)
Assay: affinity purification with mass spectrometry; Rrp5-HTP bound to an IgG column, RNase treatment, brief formaldehyde crosslinking on the column, washing under denaturing conditions (8 M urea), release by brief decrosslinking and SDS; the material migrating above Rrp5 in SDS-PAGE analysed by mass spectrometry; Brr2 as control bait

Molecule | binding
Prp43 (from UniProt P53131 1-767) | binds
Nop58 (from UniProt Q12499 1-511) | binds
Eft1 (from UniProt P32324 1-842) | binds
Ssa1 (from UniProt P10591 1-642) | binds
Nop56 (from UniProt Q12460 1-504) | binds
Rpl30 (from UniProt P14120 1-105) | binds
Rpl23 (from UniProt P0CX41 1-137) | binds
Tef1 (from UniProt P02994 1-458) | binds
Dbp9 (protein, UniProt Q06218 1-594) MSYEKKSVEGAYIDDSTTFEAFHLDSRLLQAIKNIGFQYPTLIQSHAIPLALQQKRDIIAKAATGSGKTLAYLIPVIETILEYKKTIDNGEENGTLGIILVPTRELAQQVYNVLEKLVLYCSKDIRTLNISSDMSDSVLSTLLMDQPEIIVGTPGKLLDLLQTKINSISLNELKFLVVDEVDLVLTFGYQDDLNKIGEYLPLKKNLQTFLMSATLNDDIQALKQKFCRSPAILKFNDEEINKNQNKLLQYYVKVSEFDKFLLCYVIFKLNLIKGKTLIFVNNIDRGYRLKLVMEQFGIKSCILNSELPVNSRQHIVDQFNKNVYQLLIATDDTEYIKEEDDEIEEGHNTENQEEKSLEGEPENDKKPSKKKKVQVKKDKEYGVSRGVDFKNVACVLNFDLPTTAKSYVHRVGRTARGGKTGTAISFVVPLKEFGKHKPSMLQTAKKDERILSRIIKQQSKLGLELQPYKFDQKQVEAFRYRMEDGFRAVTQVAIREARVKELKQELLASEKLKRHFEENPKELQSLRHDKELHPARVQQHLKRVPDYLLPESARGNGTKVKFVPFHNAKKRHSHKKGRVSKPKNGKVDPLKNFK | binds
Rrp12 (protein, UniProt Q12754 1-1228) MDQDKVAFLLELEDKLAKIRSQVNSKLENQKHIAIILTAVEENIAGQATNDVSKNIVNYIISFMSLLDQAVDPSTHEIKDIQLASSSTYLLDLIFHYSPKVLLRSKFSEILTKIAPCITAEKANAPLIRAAIGCLESLLIAQDAQAWNNTYDLNVTPKRGLQGILELSLDVRPKVRKRALDAVHAVLLNPPVAPTAEHVAAVFVADFCDKQLAGILNDLSNLSNKQLKAQKTKEDINASVMRSLRLITSVVSTGQWPSSQIEPLCDVLLGVTKSSEQYLVSASFECFESMFKTMAETTISSGLAENKYLRVLDTIFALKPSNVDTLLTKSWIAVVIKGMSTYATHQPLKALRKIPGVFHIMCTYLASETPEVYQAASQCLISILSESVKDDLLLYTPSVDEKVFKNVDEIISQIAKTFIDFLSIRYSHCSREILKILVAAFNKFRYRSNPHFLKSLKIVDTWRVNEEQFMDLRNEIELVIGASISAMGPEMILAEAPLNLDNPSSERPGRAWLLPLIRDYTKNANLATFQNELAPYIKSFQSKFDKVPEESIQLRVFQTIVDQIWSTLPRFCELPMDLRESFTDEFASELSSLLYSEVELRTTICHALKVLAESNVSYAEESSSHNVLLLQRFPISEAQKNIEYLSTKSTNLLAVLFNVYTQTTPNARSYILETIDQYLKITSKEDLEKTFNNVCGLLKNSMNEESSGNVNKEKKKPQLTATLLDLIICMITYLPVSSYSALFSMFSLTVNSADALIQKRAYRIITKLSELKSGSTAVAQFISDIENVMVDSASSVQTSAKAARLTAIKTIVELLPLDHLDFIVRTVAEVILSTKDVNEKSRETAFDTLICMGRKMNEPNGIIKLFQIPGYDPTTPDQSSSISEFFKIISAGLIGESQHMVSSSITGYACLVFEFKNELDSGILMDIYDTIELYLTSNSREIVKSAIGFTKVCVLGLPEELMRPKVPELLLKLLRWSHEHTGHFKAKVKHIIERLIRRFGYDYIEANFPEEDRRLLTNIRKMRNRNKRKDEEVTTGVSDVAATKGSRFMSAFDEAVYGSDEENDNGSDQEENVAGGKMKNGAKQFIVESGDNPLDLLDSQTLAHISSTRPKKFNKNQNRARFNDDAFNFDSEGKLVVKGQPKPSTNVDDPLSAVTSGINAYLEAVKSGPVRGQRNKLKFRKNGKDSDEFGDDDDGEKDSRLMRGRVNQGNKIGKHNKKGPKFKSRKKL | binds

Other lines, results leading:

binding | Molecule
binds | Rps22 (from UniProt P0C0W1 1-130)
binds | Rps0 (from UniProt P46654 1-252)
binds | Rpl11 (from UniProt Q3E757 1-174)
binds | Rps31 (from UniProt P05759)
binds | Utp10 (from UniProt P42945 1-1769)
binds | Nop1 (from UniProt P15646 1-327)
binds | Rpl1 (from UniProt P0CX44 1-217)
binds | Ded1 (from UniProt P06634 1-604)
binds | Urb1 (from UniProt P34241 1-1764)
binds | Mak21/Noc1 (protein, UniProt Q12176 1-1025) MSENNGNPLDLSSLRNKISSKLRDNNSKKAKKTHKGKDVKASSNSKKVNEDIRREALALGASEEDLKLIQGLSDDDDAKSEQEFDAVADEDADDKGFKNDLQNFMKNVGFDQHKLEDVDDDDIEEESTSSKESKIPAQEKEHAQSNIASSTIEKTSQESIDNGSEQEENTVEEANLSSDQEPESESAEKEKKEEKDGGLITQTTIISSDKLIIPYDKPWYEIPLDPQVGQNDDVEELSKEQIEKLFERGKQTLEADNQTYYEEFTKDSSQAKFMSQILSDGTLNDKISAVTLLIQDSPLHNTKSLETLVSYCGKKSRNSALQSLNALKDLFLNGLLPNRKLRYFKNQPGLSMMLNKKTLAIFYFEDYLKKLFFRVLEVLEVLSHDPIIHVRLQILNHVFDLLTNQPEQEFNLLRLGVNKIGDIDSKVSSKASYLLLKLEQAHPNMKSIVIDAIVDIALRPNADYHTTYYSVITLNQTILKRSEDSVANKLVKTYFTLFEKFLINTDKDNTNGVVKSNSKSYEEKRKKNFKKGKHGGKSVKIEKTENEVLDEKNSKLFSALLTGINRAFPFAQIPASVYEVHMETLFKITHSSNFNTSIQALVLINQVTVKAKLNSDRYYRTLYESLFDPRLVNSSKQGIYLNLLYKSLKQDALNVERVEAFVKRILQVCSHWLNVGTITGFFFLLIQLAKTVPQIKNLLTNTPVDYEYESDAEEEQGDKDIKRKEYDGRKRDPKFANAEKSSLWEINNFINHFHPTVKTYANAYVTGETEQIAKPDLGLFTLSHFLDRFVYRSAKQTNTARGTSIMQPLFSGSRVNDSVLVKASDIMHDQGPVNTEDWLTKKVEDIKPEDKFFYQYFTTKKTADGKGKKSNKASNFDSDDEMDENEIWSALVKSRPDVEDDSDDSELDFAEDDFSDSTSDDEPKLDAIDDEDAKSEGSQESDQEEGLDEDIFYSFDGEQDNSDKKRSFAESSEEDESSEEEKEEEENKEVSAKRAKKKQRKNMLKSLPVFASADDYAQYLDQDSD
binds | Rps11 (protein, UniProt P0CX47 1-156) MSTELTVQSERAFQKQPHIFNNPKVKTSKRTKRWYKNAGLGFKTPKTAIEGSYIDKKCPFTGLVSIRGKILTGTVVSTKMHRTIVIRRAYLHYIPKYNRYEKRHKNVPVHVSPAFRVQVGDIVTVGQCRPISKTVRFNVVKVSAAAGKANKQFAKF
binds | Bms1 (protein, UniProt Q08965 1-1183) MEQSNKQHRKAKEKNTAKKKLHTQGHNAKAFAVAAPGKMARTMQRSSDVNERKLHVPMVDRTPEDDPPPFIVAVVGPPGTGKTTLIRSLVRRMTKSTLNDIQGPITVVSGKHRRLTFLECPADDLNAMIDIAKIADLVLLLIDGNFGFEMETMEFLNIAQHHGMPRVLGVATHLDLFKSQSTLRASKKRLKHRFWTEVYQGAKLFYLSGVINGRYPDREILNLSRFISVMKFRPLKWRNEHPYMLADRFTDLTHPELIETQGLQIDRKVAIYGYLHGTPLPSAPGTRVHIAGVGDFSVAQIEKLPDPCPTPFYQQKLDDFEREKMKEEAKANGEITTASTTRRRKRLDDKDKLIYAPMSDVGGVLMDKDAVYIDIGKKNEEPSFVPGQERGEGEKLMTGLQSVEQSIAEKFDGVGLQLFSNGTELHEVADHEGMDVESGEESIEDDEGKSKGRTSLRKPRIYGKPVQEEDADIDNLPSDEEPYTNDDDVQDSEPRMVEIDFNNTGEQGAEKLALETDSEFEESEDEFSWERTAANKLKKTESKKRTWNIGKLIYMDNISPEECIRRWRGEDDDSKDESDIEEDVDDDFFRKKDGTVTKEGNKDHAVDLEKFVPYFDTFEKLAKKWKSVDAIKERFLGAGILGNDNKTKSDSNEGGEELYGDFEDLEDGNPSEQAEDNSDKESEDEDENEDTNGDDDNSFTNFDAEEKKDLTMEQEREMNAAKKEKLRAQFEIEEGENFKEDDENNEYDTWYELQKAKISKQLEINNIEYQEMTPEQRQRIEGFKAGSYVRIVFEKVPMEFVKNFNPKFPIVMGGLLPTEIKFGIVKARLRRHRWHKKILKTNDPLVLSLGWRRFQTLPIYTTTDSRTRTRMLKYTPEHTYCNAAFYGPLCSPNTPFCGVQIVANSDTGNGFRIAATGIVEEIDVNIEIVKKLKLVGFPYKIFKNTAFIKDMFSSAMEVARFEGAQIKTVSGIRGEIKRALSKPEGHYRAAFEDKILMSDIVILRSWYPVRVKKFYNPVTSLLLKEKTEWKGLRLTGQIRAAMNLETPSNPDSAYHKIERVERHFNGLKVPKAVQKELPFKSQIHQMKPQKKKTYMAKRAVVLGGDEKKARSFIQKVLTISKAKDSKRKEQKASQRKERLKKLAKMEEEKSQRDKEKKKEYFAQNGKRTTMGGDDESRPRKMRR
binds | Rok1 (protein, UniProt P45818 1-564) MDIFRVLTRGASVKKESGPKAKAADYSVINGNDENHKEDNNESQIVKELDFFRNKRIISKVEDDREKTTENDSPNKEEKSGNDDGLIKPVITNTVEASALRKSYKGNVSGIDIPLPIGSFEDLISRFSFDKRLLNNLIENGFTEPTPIQCECIPVALNNRDVLACGPTGSGKTLAFLIPLVQQIIDDKQTAGLKGLIISPTKELANQIFIECFKLSYKIFLEKKRPLQVALLSKSLGAKLKNKVVSDKKYDIIISTPLRLIDVVKNEALDLSKVKHLIFDEADKLFDKTFVEQSDDILSACREPSLRKAMFSATIPSNVEEIAQSIMMDPVRVIIGHKEAANTNIEQKLIFCGNEEGKLIAIRQLVQEGEFKPPIIIFLESITRAKALYHELMYDRINVDVIHAERTALQRDRIIERFKTGELWCLICTDVLARGIDFKGVNLVINYDVPGSSQAYVHRIGRTGRGGRSGKAITFYTKQDSVAIKPIINVMKQSGCEVSEWMDKMAKMTRKEKESIKNGKAHKERKQITTVPKMDKAKRRRQQEMIAASKRRKNEELSKKHFSK
